Screen size: about 400,000 compounds; about 13,000 (3.2%) were called active. The shares of active, inactive and inconclusive entries below differ from those in the screen. The call rests on the fitted dose curve; in most records, active means well fitted cell-killing curve with a large enough effect; inconclusive means small, poorly fitted or top-dose-only effect, or effect the other way; inactive means flat fitted curve, though single readings scatter. Where the call is inconclusive, the potency comes from a doubtful curve fit. Where a SMILES comes first, the peptide text is derived from it. [ ]: non-standard residue; d: D form. The star is where a group is joined. ξ: configuration not given here. ξY = NC(Cc1ccc(O)cc1)C(=O)O; Cbz = O=C(OCc1ccccc1)*; OtBu = CC(C)(C)O*; tBu = CC(C)(C)*
Test: qHTS assay for MDR1-selective chemotherapeutics: Primary screen using the drug-selected MDR subline cells KB-V1; further: nearly all actives have a fitted effect of over 60% in size
Details: KB-V1 MDR cells viability, CellTiter-Glo, 72 h; activity change, negative = cytotoxicity: at 46.1 µM (top of the series)
Method in brief: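 KB-V1 cells (P-gp-expressing MDR subline of KB-3-1) in phenol-red-free DMEM with 10% FBS were exposed to library compounds over a concentration series for 72 h at 37 degrees C. Viability read by CellTiter-Glo luminescence; concentration-effect curves fitted after normalization.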
On the % scale 0 is the no-effect control and ±100 the full control effect; potency means the concentration at half of the fitted maximal effect.

Row | SMILES | Potency | activity change, negative = cytotoxicity
1 | CCN(CCn1cccn1)Cc1nc(-c2ccccc2)no1 | active: 23.1 µM | –
2 | CC(=O)Nc1ccc2nc(-c3ccc(Br)o3)[nH]c2c1 | inactive | –
3 | Cc1ccccc1COC(=O)c1cc([N+](=O)[O-])ccc1N1CCOCC1 | inactive | –
4 | Cc1ccc2nc(-c3ccc(N=Nc4cc(S(=O)(=O)O)c5ccccc5c4O)cc3)sc2c1S(=O)(=O)O | inactive | –
5 | CC(C)(C)OC(=O)C(Cc1ccc(OC(C)(C)C)cc1)NC(=O)CNC(=O)CNC(=O)OCc1ccccc1 (stereo not drawn) (Cbz-Gly-Gly-[ξY](tBu)-OtBu) | inconclusive: 13 µM [cytotoxic, partial curve] | –
6 | CC(C)c1cccc(C(C)C)c1OC(=O)NC(=O)c1c(F)cccc1F | inactive | –
7 | Cc1cc(F)ccc1NC(=O)c1cc(S(=O)(=O)N2CCc3ccccc32)cn1C | inconclusive: 16.4 µM [cytotoxic, partial curve] | –
8 | CCN(CC)CCC(c1cc(OC)c(OC)c(OC)c1)c1c(OC)cc(OC)c2c(C)cc(=O)oc12 (stereo not drawn) | inconclusive: 29.1 µM [rising, single point] | –
9 | O=C(CSc1ccccc1)OCC(=O)N1CCN(C(=O)c2ccco2)CC1 | inconclusive: 29.1 µM [rising, single point] | –
10 | CN(C)CCCN(C(=O)C1=COCCO1)c1nc2ccc(Br)cc2s1 | inconclusive: 32.6 µM [cytotoxic, single point] | –
11 | CC(C)c1ccc(S(=O)(=O)N2CCC(n3c(C(F)(F)F)nc4cccnc43)CC2)cc1 | inactive | –
12 | CC12CC3(C)CC(C)(C1)CC(C(=O)NC(=S)NC(C)(C)C)(C2)C3 | inconclusive: 14.6 µM [rising, single point] | –
13 | COc1cccc(C(=O)N2CCC[C@H]2C(=O)N2CCC[C@H]2C(=O)NCc2ccc(F)cc2F)c1 | inactive | –
14 | Cc1ccc(S(=O)(=O)NCc2ccncc2)cc1C | inactive | –
15 | Cc1c(C(=O)NCc2ccccn2)oc2ccc(Br)cc12 | inconclusive: 20.6 µM [cytotoxic, partial curve, poor fit] | –
16 | CCCn1c(=O)c(C(=O)NCc2cccnc2)c(O)c2ccccc21 | active: 10.3 µM | –
17 | CCN1C(=O)c2ccc(C(=O)Nc3nccs3)cc2C1=O | inactive | –
18 | COC(=O)/C=C1\OC(c2ccccc2)c2ccccc21 (stereo not drawn) | inconclusive: 20.6 µM [cytotoxic, partial curve] | –
19 | Clc1ccccc1Cn1nnc2c(NCC3CC3)ncnc21 | inconclusive: 29.1 µM [cytotoxic, single point] | –
20 | COc1ccc(C(C(=O)NC2CCCC2)N(C(=O)c2snc(C(N)=O)c2N)c2ccccc2OC)cc1OC (stereo not drawn) | inconclusive: 25.9 µM [rising, single point] | –
21 | CCCCN1/C(=C/c2ccc3ccccc3[n+]2CC)Sc2ccccc21 | inactive | –
22 | CCCCc1nnc(NC(=O)CS(=O)(=O)Cc2ccccc2)s1 | inconclusive: 20.6 µM [cytotoxic, single point] | –
23 | Cc1cc(NC(=O)c2ccco2)ccc1NC(=O)c1ccco1 | active: 23.1 µM | –
24 | CCc1ccc(-n2cc(-c3ccc([N+](=O)[O-])cc3)[nH]c2=S)cc1 | inactive | –
25 | O=C(Nc1ccc(-c2cn3ccsc3n2)cc1)c1ccc(F)c(S(=O)(=O)N2CCOCC2)c1 | inconclusive: 29.1 µM [cytotoxic, single point] | –

Row | SMILES | Potency | activity change, negative = cytotoxicity
26 | Cc1ccsc1/C=N/n1c(C2CCCCC2)n[nH]c1=S | inconclusive: 32.6 µM [cytotoxic, single point] | –
27 | COc1cc(/C=C2\SC(=Nc3c(C)n(C)n(-c4ccccc4)c3=O)NC2=O)ccc1O | inconclusive: 18.4 µM [cytotoxic, partial curve, poor fit] | –
28 | CC(=O)C1=C(O)C(=O)N(CCNCCO)C1c1ccccc1 (stereo not drawn) | inactive | –
29 | COc1ccc(CC(=O)c2ccc(OC)c(OC)c2)cc1 | inconclusive: 1.03 µM [cytotoxic, partial curve, poor fit] | –
30 | COc1ccccc1C1c2c(-c3ccc(Cl)cc3)n[nH]c2C(=O)N1c1ccc(C)cc1 (stereo not drawn) | active: 25.9 µM | –
31 | CC(=O)N1CCOc2ccc(S(=O)(=O)Nc3ccc(C)cn3)cc21 | inconclusive: 29.1 µM [rising, single point] | –
32 | COc1ccc2c(C)nc(Nc3nc(C)c(C)c(=O)[nH]3)nc2c1 | active: 7.31 µM | –
33 | Cc1ccc(CNc2nc3cc(-c4ccccc4)sc3c(=O)n2C)c(C)c1 | inconclusive: 6.51 µM [cytotoxic, partial curve] | –
34 | COc1cc(C(=O)NCC(c2cccs2)N(C)C)cc(Cl)c1OC(C)C (stereo not drawn) | active: 7.31 µM | –
35 | CCc1c(C2CC2)ncn1Cc1cccc(-c2ccccc2)c1 | inactive | –
36 | Cc1ccc(C(C)(c2ccc(N)cc2)c2ccc(N)cc2)cc1 | – | inconclusive: 2.67%
37 | O=C(NCCCn1ccnc1)c1ccc(Br)o1 | inactive | –
38 | C=CCNC(=S)NNC(=O)c1csc(C)c1CC | – | inconclusive: -53.9%
39 | CCCCCn1c(=O)[nH]c2cc(C(=O)Nc3ccc(F)c(F)c3)ccc2c1=O | inconclusive: 11.6 µM [rising, partial curve, poor fit] | –
40 | COc1ccc(C(=O)Nc2nc(CC(=O)NCCc3ccccc3OC)cs2)cc1 | inconclusive: 29.1 µM [cytotoxic, single point] | –
41 | COc1cc(O)c2c(=O)c3c(O)c(O)ccc3oc2c1OC | inconclusive: 20.6 µM [cytotoxic, partial curve] | –
42 | Cc1ccc(-n2nc(-c3ccccc3)cc2Nc2ccccc2N)cc1 | inactive | –
43 | Cc1ccccc1S(=O)(=O)Cc1ccc(C(=O)N2CCN(c3cccc(Cl)c3)CC2)o1 | active: 4.61 µM | –
44 | COc1ccc(C(C)NC(=S)NC2CCCC2)cc1OC (stereo not drawn) | inconclusive: 23.1 µM [cytotoxic, partial curve, poor fit] | –
45 | O=C(NCC1CCCO1)c1nn2c(C(F)(F)F)cc(-c3ccc(Br)o3)nc2c1Br (stereo not drawn) | inactive | –
46 | O=C(COc1ccccc1)N1CCN=C1SCc1ccc(F)cc1 | inactive | –
47 | CCCn1c(SCC(=O)N2CCCC2)nc2c1c(=O)n(C)c(=O)n2C | inconclusive: 20.6 µM [cytotoxic, partial curve, poor fit] | –
48 | CC1CCc2sc(C(=O)N3CCN(c4ncccn4)CC3)cc2C1 (stereo not drawn) | inconclusive: 18.4 µM [cytotoxic, partial curve, poor fit] | –
49 | CCc1nc2ccc(C(=O)Nc3ccc(OC)c(OC)c3)cn2c1N(C)Cc1cccs1 | inactive | –
50 | O=C(NC(=S)N1CCN(c2ccc(F)cc2)CC1)C12CC3CC(CC(C3)C1)C2 | inconclusive: 5.17 µM [cytotoxic, full curve] | –

Exported as a markdown table: entries from further up.

| Row | SMILES | Potency | activity change, negative = cytotoxicity |
| --- | --- | --- | --- |
| 9 | O=C(CSc1ccccc1)OCC(=O)N1CCN(C(=O)c2ccco2)CC1 | inconclusive: 29.1 µM [rising, single point] | – |
| 10 | CN(C)CCCN(C(=O)C1=COCCO1)c1nc2ccc(Br)cc2s1 | inconclusive: 32.6 µM [cytotoxic, single point] | – |

(more compounds)

Row | SMILES | Potency | activity change, negative = cytotoxicity
51 | O=C(/C(=N/O)c1ccccc1)c1ccccc1 | inconclusive: 32.6 µM [rising, single point] | –
52 | CCOC(=O)/C(C#N)=C/c1c(Oc2cc(C)cc(C)c2)nc2ccccn2c1=O | inconclusive: 16.4 µM [cytotoxic, single point] | –
53 | CC(=O)c1c(C)oc2ccc(N(C(C)=O)S(=O)(=O)c3cccc4cccnc34)cc12 | inconclusive: 29.1 µM [cytotoxic, single point] | –
54 | CC(C)=NNc1nc2sc3c(c2c(=O)[nH]1)CC(C)(C)OC3 | inactive | –
55 | O=C(CN1C(=O)COc2ccccc21)NCCCN1CCc2ccccc2C1 | inconclusive: 23.1 µM [cytotoxic, single point] | –
56 | CCC(=O)Oc1ccc(C(=O)Nc2ccccc2C(=O)NCC(C)C)cc1 | inconclusive: 13 µM [rising, partial curve, poor fit] | –
57 | O=C(Nc1ccc(Br)cc1)NC1CCCCCCC1 | inconclusive: 32.6 µM [cytotoxic, single point] | –
58 | Cc1ccc(C(C(=O)NCc2ccco2)N(C(=O)CNC(=O)c2cccs2)c2ccc(C)cc2C)cc1 (stereo not drawn) | inactive | –
59 | Cc1ccc(C)c(NC(=O)CN2CCSc3ccc(S(=O)(=O)N4CCCC4)cc32)c1 | inconclusive: 14.6 µM [cytotoxic, single point] | –
60 | CC(=O)c1c(C(C)=O)c(C)n(-c2nc(-c3ccccc3)c(C)s2)c1C | inconclusive: 16.4 µM [cytotoxic, single point] | –
61 | COc1ccc(CN(C)CC2CCCN(CCc3ccc(Cl)cc3)C2)cc1OC (stereo not drawn) | inactive | –
62 | CC(C)NC(=NCc1ccc(Cl)cc1Cl)Nc1ccccc1 | inconclusive: 29.1 µM [cytotoxic, single point] | –
63 | CCOC(=O)c1c(C)[nH]c(C(=O)COC(=O)Cn2cc(C(F)(F)F)ccc2=O)c1C | inconclusive: 20.6 µM [cytotoxic, single point] | –
64 | ClCCn1c(CCl)nc2ccc(Cl)cc21 | inactive | –
65 | CCc1nnc(SCc2nc(-c3ccccc3)oc2C)c2cc3sccc3n12 | inactive | –
66 | Cc1ccc(S(=O)(=O)N2CCCC2CNC(=O)C(=O)Nc2ccc(F)cc2)cc1 (stereo not drawn) | inconclusive: 9.2 µM [cytotoxic, partial curve, poor fit] | –
67 | [O-][n+]1c2ccccc2cc2ccccc21 | inactive | –
68 | CCc1ccc(CNC(=O)Cc2c(C(=O)O)c(C)cn2C)cc1 | inactive | –
69 | COc1ccccc1C(=O)NCCC(=O)Nc1ccc(S(=O)(=O)N2CCC(C)CC2)cc1 | inactive | –
70 | COc1cc(OC)cc(C(=O)N2CCN(C(=O)c3ccc(OC)c(OC)c3)CC2)c1 | inactive | –
71 | COc1ccc(CN2C(=O)c3ccccc3C(/C=N\OCc3ccc(C)cc3)C2=O)cc1 (stereo not drawn) | inconclusive: 6.51 µM [cytotoxic, full curve] | –
72 | CC1CC(C)(C)NC(=S)N1CC(=O)NCc1ccccc1Cl (stereo not drawn) | inconclusive: 20.6 µM [cytotoxic, single point] | –
73 | Cc1nn(C)c(Nc2ccc(Br)cc2)c1Br | inconclusive: 8.2 µM [cytotoxic, partial curve] | –

Complete entries from above. Values in the order: Potency	activity change, negative = cytotoxicity
COc1cc(/C=C2\SC(=Nc3c(C)n(C)n(-c4ccccc4)c3=O)NC2=O)ccc1O in the list: inconclusive: 18.4 µM [cytotoxic, partial curve, poor fit]	–
COc1ccc2c(C)nc(Nc3nc(C)c(C)c(=O)[nH]3)nc2c1 in the list: active: 7.31 µM	–
Cc1cc(F)ccc1NC(=O)c1cc(S(=O)(=O)N2CCc3ccccc32)cn1C in the list: inconclusive: 16.4 µM [cytotoxic, partial curve]	–
Cc1ccc(S(=O)(=O)NCc2ccncc2)cc1C in the list: inactive	–
